PubChem BioAssay AID602196 | INSERM | 2012
Shown is one part, drawn at random, of about 23,000 deposited reagents. 455 of all reagents (2%) were called active. 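Active includes both protection and sensitisation; some change values fall well beyond the stated -50 to +50 range.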 Not all columns of the deposit are shown. The record does not give: the amount of reagent.

- Aim: 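Genes whose knock-down alters cisplatin killing of lung cancer cells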
- Cells: human A549 lung cancer cells
- Reagents: siRNA pair against human genes
- Timing: 48 h transfection before cisplatin; time from cisplatin to read-out not stated
- Treatment: cisplatin at a dose killing half of control-siRNA cells; exact dose and duration not given
- Measurement: 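Cisplatin cell death as a shift from the 50% death seen with control siRNA; siRNAs toxic or growth-blocking alone scored 0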
- Scale: two-siRNA summed score (-2 to +2): higher = both siRNAs protect from cisplatin killing; -2 means both sensitise; mean protection from cisplatin (shift in death): higher = protection from cisplatin killing
- Rule for the call: 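Each siRNA scores 0 if harmful alone by LDH or WST-1, otherwise +1 if it reduces and -1 if it increases cisplatin killing; a gene is active when both siRNAs agree (sum +2 or -2)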
- Calls: active = both siRNAs shift cisplatin killing the same way; inactive = no consistent shift, or siRNA harmful alone

What is on record for TRIM53CP?
two-siRNA summed score (-2 to +2): 0; mean protection from cisplatin (shift in death) (%): 9.7; outcome: inactive

For PRKD1, what was measured?
two-siRNA summed score (-2 to +2): 1; mean protection from cisplatin (shift in death) (%): 10.2; outcome: inactive

How did the screen score XIRP2?
two-siRNA summed score (-2 to +2): 1; mean protection from cisplatin (shift in death) (%): 5; outcome: inactive

For RPH3AL, what was measured?
two-siRNA summed score (-2 to +2): 0; mean protection from cisplatin (shift in death) (%): 19.5; outcome: inactive

For LOC401509, what was measured?
two-siRNA summed score (-2 to +2): 0; mean protection from cisplatin (shift in death) (%): 6.1; outcome: inactive

With RNF152, what was measured?
two-siRNA summed score (-2 to +2): 1; mean protection from cisplatin (shift in death) (%): 8.2; outcome: inactive

Which result is listed for TIMM17B?
two-siRNA summed score (-2 to +2): 1; mean protection from cisplatin (shift in death) (%): 2.4; outcome: inactive

With JOSD2, what does the deposit list?
two-siRNA summed score (-2 to +2): 0; mean protection from cisplatin (shift in death) (%): 21.9; outcome: inactive

What did the screen give for LOC442687?
two-siRNA summed score (-2 to +2): 1; mean protection from cisplatin (shift in death) (%): 18; outcome: inactive

For TSPAN13, how do the results read?
two-siRNA summed score (-2 to +2): 0; mean protection from cisplatin (shift in death) (%): -2.1; outcome: inactive

With REPIN1, what was measured?
two-siRNA summed score (-2 to +2): 1; mean protection from cisplatin (shift in death) (%): 14.7; outcome: inactive

How did the screen score TFR2?
two-siRNA summed score (-2 to +2): 0; mean protection from cisplatin (shift in death) (%): 7.3; outcome: inactive

For LOC391825, how do the results read?
two-siRNA summed score (-2 to +2): 0; mean protection from cisplatin (shift in death) (%): 8.2; outcome: inactive

With PRAMEF8, what was measured?
two-siRNA summed score (-2 to +2): 0; mean protection from cisplatin (shift in death) (%): -11.2; outcome: inactive

For GPA33, how do the results read?
two-siRNA summed score (-2 to +2): 0; mean protection from cisplatin (shift in death) (%): -3.7; outcome: inactive

What is on record for LOC440270?
two-siRNA summed score (-2 to +2): 0; mean protection from cisplatin (shift in death) (%): 10.8; outcome: inactive

With ACTE1P, how do the results read?
two-siRNA summed score (-2 to +2): -1; mean protection from cisplatin (shift in death) (%): 8.1; outcome: inactive

With DENND5A, what was measured?
two-siRNA summed score (-2 to +2): 0; mean protection from cisplatin (shift in death) (%): 9.7; outcome: inactive

With GAS7, how do the results read?
two-siRNA summed score (-2 to +2): 0; mean protection from cisplatin (shift in death) (%): 4.1; outcome: inactive

What did the screen give for ZFC3H1?
two-siRNA summed score (-2 to +2): 0; mean protection from cisplatin (shift in death) (%): 10.7; outcome: inactive

What did the screen give for SMG6?
two-siRNA summed score (-2 to +2): 1; mean protection from cisplatin (shift in death) (%): 13.6; outcome: inactive

Part of the list above, reformatted.
| gene knocked down | two-siRNA summed score (-2 to +2) | mean protection from cisplatin (shift in death) (%) | outcome |
| --- | --- | --- | --- |
| LOC391825 | 0 | 8.2 | inactive |
| PRAMEF8 | 0 | -11.2 | inactive |
